From the supplement of paper PMC8728848
The other results are listed elsewhere or left out.

Legend:
Test in all cases: glycan array binding signal (z-score within array); higher = stronger binding
Details in all cases: glycan notation: IUPAC condensed, linker removed
[1] = molecular target: Neu5Ac(a2-3)GalNAc
Outline: (§1)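 Glycan array data were curated from 3228 arrays in the Consortium for Functional Glycomics database and kept only where the protein sequence was available. Glycan names were converted to IUPAC-condensed notation, and columns mapping to the same glycan were averaged. The binding signal is a within-array Z-score, averaged across arrays of the same protein sequence at different concentrations or buffers and across linkers. Negative Z-scores can be read as non-binding.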

[2] = molecular target: Neu5Ac(a2-3)GalNAc(b1-4)GlcNAc
Outline: as §1

[3] = molecular target: Neu5Ac(a2-3)[GalNAc(b1-4)]Gal(b1-4)Glc
Outline: as §1

[4] = molecular target: Neu5Ac(a2-3)[GalNAc(b1-4)]Gal(b1-4)GlcNAc
Outline: as §1

[5] = molecular target: Neu5Ac(a2-3)[GalNAc(b1-4)]Gal(b1-4)GlcNAc(b1-3)GalNAc
Outline: as §1

[6] = molecular target: Neu5Ac(a2-3)[Neu5Ac(a2-6)]GalNAc
Outline: as §1

[7] = molecular target: Neu5Ac(a2-6)Gal
Outline: as §1

[8] = molecular target: Neu5Ac(a2-6)Gal(b1-3)GlcNAc(b1-3)[Gal(b1-4)GlcNAc(b1-6)]Gal(b1-4)Glc
Outline: as §1

[9] = molecular target: Neu5Ac(a2-6)Gal(b1-4)Glc
Outline: as §1

[10] = molecular target: Neu5Ac(a2-6)Gal(b1-4)GlcNAc
Outline: as §1

[11] = molecular target: Neu5Ac(a2-6)Gal(b1-4)GlcNAc(b1-2)Man
Outline: as §1

[12] = molecular target: Neu5Ac(a2-6)Gal(b1-4)GlcNAc(b1-2)Man(a1-3)Man(b1-4)GlcNAc(b1-4)GlcNAc
Outline: as §1

[13] = molecular target: Neu5Ac(a2-6)Gal(b1-4)GlcNAc(b1-2)Man(a1-3)[Gal(b1-4)GlcNAc(b1-2)Man(a1-6)]Man(b1-4)GlcNAc(b1-4)GlcNAc
Outline: as §1

[14] = molecular target: Neu5Ac(a2-6)Gal(b1-4)GlcNAc(b1-2)Man(a1-3)[GlcNAc(b1-2)Man(a1-6)]Man(b1-4)GlcNAc(b1-4)GlcNAc
Outline: as §1

[15] = molecular target: Neu5Ac(a2-6)Gal(b1-4)GlcNAc(b1-2)Man(a1-3)[GlcNAc(b1-4)][Neu5Ac(a2-6)Gal(b1-4)GlcNAc(b1-2)Man(a1-6)]Man(b1-4)GlcNAc(b1-4)GlcNAc
Outline: as §1

[16] = molecular target: Neu5Ac(a2-6)Gal(b1-4)GlcNAc(b1-2)Man(a1-3)[Man(a1-6)]Man(b1-4)GlcNAc(b1-4)GlcNAc
Outline: as §1

[17] = molecular target: Neu5Ac(a2-6)Gal(b1-4)GlcNAc(b1-2)Man(a1-3)[Neu5Ac(a2-3)Gal(b1-4)GlcNAc(b1-2)Man(a1-6)]Man(b1-4)GlcNAc(b1-4)GlcNAc
Outline: as §1

[18] = molecular target: Neu5Ac(a2-6)Gal(b1-4)GlcNAc(b1-2)Man(a1-3)[Neu5Ac(a2-6)Gal(b1-4)GlcNAc(b1-2)Man(a1-6)]Man(b1-4)GlcNAc(b1-4)GlcNAc
Outline: as §1

[19] = molecular target: Neu5Ac(a2-6)Gal(b1-4)GlcNAc(b1-2)Man(a1-3)[Neu5Ac(a2-6)Gal(b1-4)GlcNAc(b1-2)Man(a1-6)]Man(b1-4)GlcNAc(b1-4)[Fuc(a1-6)]GlcNAc
Outline: as §1

[20] = molecular target: Neu5Ac(a2-6)Gal(b1-4)GlcNAc(b1-2)Man(a1-6)Man(b1-4)GlcNAc(b1-4)GlcNAc
Outline: as §1

[21] = molecular target: Neu5Ac(a2-6)Gal(b1-4)GlcNAc(b1-2)Man(a1-6)[Gal(b1-4)GlcNAc(b1-2)Man(a1-3)]Man(b1-4)GlcNAc(b1-4)GlcNAc
Outline: as §1

[22] = molecular target: Neu5Ac(a2-6)Gal(b1-4)GlcNAc(b1-2)Man(a1-6)[GlcNAc(b1-2)Man(a1-3)]Man(b1-4)GlcNAc(b1-4)GlcNAc
Outline: as §1

[23] = molecular target: Neu5Ac(a2-6)Gal(b1-4)GlcNAc(b1-2)Man(a1-6)[Man(a1-3)]Man(b1-4)GlcNAc(b1-4)GlcNAc
Outline: as §1

[24] = molecular target: Neu5Ac(a2-6)Gal(b1-4)GlcNAc(b1-2)[Neu5Ac(a2-6)Gal(b1-4)GlcNAc(b1-4)]Man(a1-3)[GlcNAc(b1-4)][Neu5Ac(a2-6)Gal(b1-4)GlcNAc(b1-2)[Neu5Ac(a2-6)Gal(b1-4)GlcNAc(b1-6)]Man(a1-6)]Man(b1-4)GlcNAc(b1-4)GlcNAc
Outline: as §1

[25] = molecular target: Neu5Ac(a2-6)Gal(b1-4)GlcNAc(b1-2)[Neu5Ac(a2-6)Gal(b1-4)GlcNAc(b1-4)]Man(a1-3)[GlcNAc(b1-4)][Neu5Ac(a2-6)Gal(b1-4)GlcNAc(b1-4)Man(a1-6)]Man(b1-4)GlcNAc(b1-4)GlcNAc
Outline: as §1

[26] = molecular target: Neu5Ac(a2-6)Gal(b1-4)GlcNAc(b1-2)[Neu5Ac(a2-6)Gal(b1-4)GlcNAc(b1-6)]Man(a1-6)[Neu5Ac(a2-6)Gal(b1-4)GlcNAc(b1-2)Man(a1-3)][GlcNAc(b1-4)]Man(b1-4)GlcNAc(b1-4)GlcNAc
Outline: as §1

[27] = molecular target: Neu5Ac(a2-6)Gal(b1-4)GlcNAc(b1-3)Gal(b1-3)GlcNAc
Outline: as §1

[28] = molecular target: Neu5Ac(a2-6)Gal(b1-4)GlcNAc(b1-3)Gal(b1-4)GlcNAc
Outline: as §1

[29] = molecular target: Neu5Ac(a2-6)Gal(b1-4)GlcNAc(b1-3)Gal(b1-4)GlcNAc(b1-2)Man(a1-3)[Neu5Ac(a2-6)Gal(b1-4)GlcNAc(b1-3)Gal(b1-4)GlcNAc(b1-2)Man(a1-6)]GalNAc
Outline: as §1

[30] = molecular target: Neu5Ac(a2-6)Gal(b1-4)GlcNAc(b1-3)Gal(b1-4)GlcNAc(b1-3)Gal(b1-4)GlcNAc
Outline: as §1

[31] = molecular target: Neu5Ac(a2-6)Gal(b1-4)GlcNAc(b1-3)Gal(b1-4)GlcNAc(b1-3)Gal(b1-4)GlcNAc(b1-2)Man(a1-3)[Neu5Ac(a2-6)Gal(b1-4)GlcNAc(b1-3)Gal(b1-4)GlcNAc(b1-3)Gal(b1-4)GlcNAc(b1-2)Man(a1-6)]GalNAc
Outline: as §1

[32] = molecular target: Neu5Ac(a2-6)Gal(b1-4)GlcNAc(b1-3)Gal(b1-4)GlcNAc(b1-3)GalNAc
Outline: as §1

[33] = molecular target: Neu5Ac(a2-6)Gal(b1-4)GlcNAc(b1-3)Gal(b1-4)GlcNAc(b1-3)[Neu5Ac(a2-6)Gal(b1-4)GlcNAc(b1-3)Gal(b1-4)GlcNAc(b1-6)]GalNAc
Outline: as §1

[34] = molecular target: Neu5Ac(a2-6)Gal(b1-4)GlcNAc(b1-3)Gal(b1-4)GlcNAc(b1-6)[Gal(b1-3)]GalNAc
Outline: as §1

[35] = molecular target: Neu5Ac(a2-6)Gal(b1-4)GlcNAc(b1-3)Gal(b1-4)[Fuc(a1-3)]GlcNAc(b1-3)Gal(b1-4)[Fuc(a1-3)]GlcNAc
Outline: as §1

[36] = molecular target: Neu5Ac(a2-6)Gal(b1-4)GlcNAc(b1-3)GalNAc
Outline: as §1

[37] = molecular target: Neu5Ac(a2-6)Gal(b1-4)GlcNAc(b1-3)[Neu5Ac(a2-6)Gal(b1-4)GlcNAc(b1-6)]GalNAc
Outline: as §1

B1: SspB A3vp1 (Streptococcus gordonii), Q54186 (protein)
chain: MTNEADYQAKLAAYQTELARVQKANADAKATYEKAVEDNKAKNAAIKAENEEIKQRNAVAKTDYEAKLAKYEADLAKYKKEFAAYTAALAEAESKKKQDGYLSEPRSQSLNFKSEPNAIRTIDSSVHQYGQQELDALVKSWGISPTNPDRKKSRAYSYFNAINSNNTYAKLVLEKDKPVDVTYTGLKNSSFNGKKISKVVYTYTLKETGFNDGTKMTMFASSDPTVTAWYNDYFTSTNINVKVKFYDEEGQLMNLTGGLVNFSSLNRGNGSGAIDKDAIESVRNFNGRYIPISGSSIKIHENNSAYADSSNAEKSLGARWNTSEWDTTSSPNNWYGAIVGEITQSEISFNMASSKSGNIWFAFNSNINAIGVPTKPVAPTAPTQPMYETEKPLEPAPVAPSYENEPTPPVKTPDQPEPSKPAAALEHHHHHH
[1]
  glycan array binding signal (z-score): -0.799
[2]
  glycan array binding signal (z-score): -0.939
[3]
  glycan array binding signal (z-score): -0.529
[4]
  glycan array binding signal (z-score): -0.535
[5]
  glycan array binding signal (z-score): 1.4
[6]
  glycan array binding signal (z-score): -0.215
[7]
  glycan array binding signal (z-score): -0.26
[8]
  glycan array binding signal (z-score): -0.279
[9]
  glycan array binding signal (z-score): -0.774
[10]
  glycan array binding signal (z-score): -0.982
[11]
  glycan array binding signal (z-score): 0.384
[12]
  glycan array binding signal (z-score): -0.219
[13]
  glycan array binding signal (z-score): 0.313
[14]
  glycan array binding signal (z-score): -0.881
[15]
  glycan array binding signal (z-score): -1.08
[16]
  glycan array binding signal (z-score): 1.37
[17]
  glycan array binding signal (z-score): -0.749
[18]
  glycan array binding signal (z-score): 0.421
[19]
  glycan array binding signal (z-score): 1.05
[20]
  glycan array binding signal (z-score): -0.675
[21]
  glycan array binding signal (z-score): -0.084
[22]
  glycan array binding signal (z-score): -0.617
[23]
  glycan array binding signal (z-score): -0.153
[24]
  glycan array binding signal (z-score): 0.273
[25]
  glycan array binding signal (z-score): 0.627
[26]
  glycan array binding signal (z-score): -0.503
[27]
  glycan array binding signal (z-score): -0.052
[28]
  glycan array binding signal (z-score): -0.406
[29]
  glycan array binding signal (z-score): 1.68
[30]
  glycan array binding signal (z-score): -0.566
[31]
  glycan array binding signal (z-score): 1.36
[32]
  glycan array binding signal (z-score): -0.196
[33]
  glycan array binding signal (z-score): 1.79
[34]
  glycan array binding signal (z-score): -0.002
[35]
  glycan array binding signal (z-score): 0.696
[36]
  glycan array binding signal (z-score): -0.583
[37]
  glycan array binding signal (z-score): 0.337
